Data taken from publication PMC7467262.
Results are given in words; binding and its absence hold for the method and conditions named. Binding calls can cover weak binding; strength is not graded here. Where a sequence is shown, tags or fusion partners need not be part of it.

Columns and labels:
[1] = target: T1, GST-XYR1 AD(767-860) (T. reesei) (UniProt G0RLE8); experiment: pull-down; purified GST or GST-XYR1 AD(767-860) pre-coupled on glutathione sepharose 4B beads, incubated with TrGAL11 KIX-His at least 2 h at room temperature; three washes with PBST (0.5% Triton X-100, pH 7.4); western blot with anti-His antibody; both purified
T1 sequence: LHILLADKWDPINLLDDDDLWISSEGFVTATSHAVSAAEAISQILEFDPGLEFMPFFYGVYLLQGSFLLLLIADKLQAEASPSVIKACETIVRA

[2] = target: T2, XYR1 activation domain (XYR1 AD, aa 767-860), Gal4 DNA-binding domain fusion from pGBKT7-XYR1 AD (T. reesei) (UniProt G0RLE8); experiment: two-hybrid; yeast Y2H Gold; XYR1 AD in pGBKT7, TrGAL11 full length or KIX in pGADT7; serial dilutions spotted on QDO (SD/-Ade/-His/-Leu/-Trp) with 75 ng/mL AbA, 30°C, 3 days
T2 sequence: T1 sequence

| binding [1] | binding [2] | Substance |
| --- | --- | --- |
| binds |  | TrGAL11 KIX-6His (amino acids 1-134) (from UniProt G0RJA8) (domain or fragment) |
|  | binds | TrGAL11 full length, Gal4 activation domain fusion from pGADT7-TrGAL11 FL (T. reesei) |
